Library screening results

Data taken from ChEMBL document CHEMBL3988442, “University of Dundee, Small-Polar-MMV Screening Library” (2021).

A: 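Whole-cell assay for inhibitors of Mycobacterium tuberculosis growth, labelled Cornell in the record; the read-out is not stated. The concentration is filed as 10 mM, unlikely as a test dose, so the dose is not known. Higher means stronger inhibition (inferred from two other growth screens of the library). About 53,000 compounds were tested under these conditions; 1.7% (about 900) showed 50% or more at least once.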
B: 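Assay on Mycobacterium tuberculosis, filed only as a heat shock assay from Cornell; the read-out is not stated. The concentration is filed as 10 mM, unlikely as a test dose, so the dose is not known. Higher reads as stronger inhibition (inferred: compounds with an IC50 in retests scored well above the rest). About 69,000 compounds were tested under these conditions; 1.4% (about 930) showed 50% or more at least once.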

Values are the deposited “Percent Effect”, in %. The record does not define 0% and 100%; most values in the screen are far below 50% and negative numbers occur (in some assays of this library far below -100). This is an unselected part of the compounds tested. A dash means the value is not listed here; it may have been measured.

structure | A | B
Cc1cc(NC(=O)COC(=O)c2ccc(F)cc2Br)n(C)n1 | 40.33 | 2.107
CN(CCCc1ccccc1)Cc1nc2c(cnn2C)c(=O)[nH]1 | 8.883 | 59.96
CCOc1ccccc1CCNC(=O)NCC(O)c1ccsc1 (centres undefined) | 26.35 | -1.929
COc1ccc(CNC(=O)NC(C)Cn2cccn2)cc1O (centres undefined) | - | -7.476
NC(=O)CN1CC(c2nc(C3CC3)no2)C1.O=C(O)C(=O)O | -1.644 | -10.66
CCCNC(=O)CCNc1cncc(-n2nc(C)cc2C)n1 | -1.287 | -16.72
O=C(O)C(F)(F)F.O=C(O)C(F)(F)F.c1cncc(COCc2nnc3n2CCN(Cc2cccs2)C3)c1 | -4.965 | -19.15
COc1ccc(F)c(CN2CC(=O)N(c3ccccc3C)CC2C)c1 (centres undefined) | 47.4 | 6.828
COc1c(C)cc(CNCc2ccnc(N3CCOCC3)c2)cc1C.Cl | 19.82 | -3.297
O=S(=O)(c1ccccc1)N1CCCC(Cn2cncn2)C1 (centres undefined) | - | -13.06
CN1CCOC(CNC(=O)Cc2ccccc2F)C1 (centres undefined) | 3.6 | -8.463
CC(C)c1cc(N2CCN(c3ccc(O)cc3)CC2)n2nccc2n1 | 106.1 | 25.15
CN(Cc1ccncc1)C1CC2(CCN(Cc3ccccn3)CC2)C1 | 23.2 | -0.4762
CC(C)c1nc2c(n1C)CCN(CCCOc1ccc(C#N)cc1)C2 | - | -14.15
CC(=O)c1ccc(NC(=O)NC(C(=O)N(C)C)C(C)C)cc1 (centres undefined) | 2.713 | 30.77
COCCn1cnnc1Cn1ccnc1-c1ccccc1C | -54.45 | 3.402
O=C(NCc1cnc2n1CCN(CC1CC1)C2)C1CC1.O=C(O)C(F)(F)F | - | -32.01
CCN1C(=O)C(C)(C)c2cc(NC(=O)c3ccn(CC)n3)ccc21 | 26.77 | -16.35
COc1ccccc1-c1cc(NC(=O)CCS(=O)(=O)C2CCCC2)[nH]n1 | 34.23 | 4.684
COC(=O)c1ccc(NC(=O)CCc2ccco2)cc1 | - | -4.436
Cc1noc(C)c1-c1n[nH]c2c1CN(S(=O)(=O)c1cccnc1)CC2 | 2.106 | -1.637
COc1ccc(C2Nc3ccccc3C3=NCCCN32)cc1OC (centres undefined) | - | 4.209
Cc1nc(CNC(=O)NCC(F)(F)F)oc1C | - | -14.57
CN1Cc2nnc(C3CCOCC3)n2C(Cc2c[nH]cn2)C1 (centres undefined) | -66.73 | -9.749
CN(C(=O)Cn1nc(-c2ccc(Br)cc2)ccc1=O)C1CCS(=O)(=O)C1 (centres undefined) | -47.71 | 6.075
O=C(Cc1ccccn1)N1CCN(C(=O)CC2CCCCC2)CC1 | - | -0.5454
CCc1ncc2c(n1)CN(c1nnc(C)c(C)c1C#N)CC2 | 17.95 | 3.984
Cc1csc(CNc2cnn(C(C)C)c2)n1 | -3.592 | -17.62
Cc1nc(C)n(CC2CCCN(Cc3nc(C4CC4)no3)C2)n1 (centres undefined) | -8.397 | 0.8409
CCOCCCOC(=O)c1ccc2c(c1)[nH]c(=O)n2C | 3.614 | -34.2
O=C(Cc1ccc(S(=O)(=O)C(F)F)cc1)N1CCCC1 | 27.42 | 21.53
O=C(NCC1(O)CCCCC1)c1coc(COc2cccc(F)c2)n1 | 24.2 | -19.97
C[C@@H](CO)Nc1nccc(-c2cnc3sc(Cl)cn3c2=O)n1 | 9.876 | -9.667
[H][C@@]12COC[C@@H](C(=O)N3CCCO3)[C@]1([H])CN(Cc1c(C)noc1C)C2 | -34.19 | -9.441
O=c1[nH]nc2nc(N3CCSCC3)ccn12 | -14.93 | 4.116
CCn1cc(CN(C)C(=O)c2cc(C(F)(F)F)n(C)n2)cn1 | 6.318 | 6.668
c1ccc2[nH]c(C3CCN(Cc4nc(C5CC5)no4)CC3)cc2c1 | - | -25.73
CCOC1CC2(CCN(C(C)=O)CC2)c2cc(F)ccc21 (centres undefined) | 36.93 | -23.88
CN1CCCC1CCn1ccnc1-c1ccc2ccccc2n1 (centres undefined) | - | 38.29
CC(C)c1noc(CCC(=O)Nc2cc(F)ccc2F)n1 | -35.92 | -9.902
CCOc1ccc(C(=O)N2CCCC2c2cnn(C)c2)cn1 (centres undefined) | -6.378 | -7.518
[H][C@@]12CCCO[C@]1([H])[C@H](NC(=O)CC1CC1)CN(Cc1ccc(OC)cc1)C2 | -12.31 | -39.79
OCCNc1cc(N2CCC(n3cc(C4CCCC4)nn3)CC2)ncn1 | 30.51 | 8.872
Cc1nc(NCc2ccc(C)o2)cc(C(=O)N2CCOCC2)n1 | 0.4467 | 13.53
CCN(CC(=O)NC(C)C)S(=O)(=O)N1CCC(C)C1 (centres undefined) | 5.89 | -3.564
O=C1CCc2cc(C(=O)NCc3ccc(-n4cncn4)nc3)ccc2N1 | -3.503 | 23.26
COc1ccc(C(NCc2cccc(C#N)c2)C2CC2)cc1 (centres undefined) | 26.22 | -1.754
O=C(c1ccc(NCc2cccc(F)c2)cc1)N1CCC(CO)CC1 | -31.59 | -1.16
O=C(c1cnn2cc(CCO)cnc12)N1CCOC(C(F)(F)F)C1 (centres undefined) | -19.31 | -1.235
O=C(CCn1ccc2ccccc21)N1CCC(Nc2cccnn2)CC1 | 4.101 | 15.98
O=C(O)C(F)(F)F.[H][C@@]12OCCN(CCOCc3ccccc3)[C@@]1([H])CC[C@@H]2OCC | -0.8585 | 12.16
COc1c(C)cnc(CN2CCOC(Cn3nc(C)cc3C)C2)c1C (centres undefined) | - | -11.98
CC(CN1CCC2(CC1)N=C(N(C)C)NC2=O)c1ccccc1 (centres undefined) | 21.58 | -18.99
[H][C@@]12CC[C@H](Oc3ccccc3F)[C@]1([H])CN(C(=O)COCCOC)C2 | -46.92 | -22.5
O=C(O)C(F)(F)F.O=C(O)C(F)(F)F.O=C(O)C(F)(F)F.[H][C@@]12C[C@H](C(=O)NCCN(C)C)N(C)[C@]1([H])CN(c1ncccn1)C2 | -19.42 | -17.57
CCOC(=O)c1coc(N2CCC(C(C)N3CCCC3)CC2)n1 (centres undefined) | 2.787 | -1.214

For reference, 4 entries once more:

structure	A	B
C[C@@H](CO)Nc1nccc(-c2cnc3sc(Cl)cn3c2=O)n1	9.876	-9.667
O=C(O)C(F)(F)F.O=C(O)C(F)(F)F.O=C(O)C(F)(F)F.[H][C@@]12C[C@H](C(=O)NCCN(C)C)N(C)[C@]1([H])CN(c1ncccn1)C2	-19.42	-17.57
CN1CCCC1CCn1ccnc1-c1ccc2ccccc2n1 (centres undefined)	-	38.29
COc1ccc(F)c(CN2CC(=O)N(c3ccccc3C)CC2C)c1 (centres undefined)	47.4	6.828